Measured values as given in PMC5996148.
This is one part of the list. For some of these results: The source does not settle which construct or isoform was used.

Key:
Test in all cases: protein microarray (ProtoArray v5.0), streptavidin-Alexa Fluor 647
Conditions in all cases: 3'-biotin; 20 mM Tris (pH 7.5), 5 mM MgCl2, 100 mM KCl, 0.1% Tween-20, A/T-rich and random oligonucleotide blockers; temperature not stated; high values mean tight binding
[1] = test system: BRICHOS domain-containing protein C16orf79 (human)
BRWD1 (human) = test system: BRWD1 (human)
BSG = molecular target: T1, BSG (UniProt P35613)
T1 sequence: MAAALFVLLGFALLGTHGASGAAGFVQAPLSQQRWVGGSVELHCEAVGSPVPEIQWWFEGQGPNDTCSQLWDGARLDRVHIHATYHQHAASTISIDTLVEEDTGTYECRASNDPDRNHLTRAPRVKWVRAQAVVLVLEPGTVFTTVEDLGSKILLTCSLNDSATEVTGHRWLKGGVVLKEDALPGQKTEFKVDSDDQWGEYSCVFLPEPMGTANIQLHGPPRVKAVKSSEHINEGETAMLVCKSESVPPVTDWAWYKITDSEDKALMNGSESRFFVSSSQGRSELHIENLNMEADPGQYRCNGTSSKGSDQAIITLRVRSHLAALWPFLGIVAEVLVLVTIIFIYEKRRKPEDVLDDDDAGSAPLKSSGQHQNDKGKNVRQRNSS

BSND (human) = test system: BSND (human)
BST1 (human) = test system: BST1 (human)
[2] = test system: BTB/POZ domain-containing protein KCTD9 (human)
BTBD10 (human) = test system: BTBD10 (human)
BTG2 (human) = test system: BTG2 (human)
BTN3A2 (human) = test system: BTN3A2 (human)
BZW2 (human) = test system: BZW2 (human)

## GGGAGGCTGAGGCAGG [G4-1 biotinylated (PQS2)]
[1]
  binding signal: -0.267 z-score
BRWD1 (human)
  binding signal: -0.238 z-score
BSG
  binding signal: -0.345 z-score
BSND (human)
  binding signal: -0.317 z-score
BST1 (human)
  binding signal: -0.304 z-score
[2]
  binding signal: -0.306 z-score
BTBD10 (human)
  binding signal: -0.26 z-score
BTG2 (human)
  binding signal: -0.345 z-score
BTN3A2 (human)
  binding signal: -0.303 z-score
BZW2 (human)
  binding signal: -0.278 z-score
